Reference: paper PMC3252370
These are yes or no findings as the source states them, for the method shown. Binding seen in cells or lysates may run through a third protein. Some results given as binding are weak or reduced against the parent protein; the word gives no strength. For some assays here: Sequences can lack the tags named with a protein.

By UniProt entry, the sequences of proteins in these tests, tags left out. Residues count along the entry.
UniProt P02751, residues 32-2477: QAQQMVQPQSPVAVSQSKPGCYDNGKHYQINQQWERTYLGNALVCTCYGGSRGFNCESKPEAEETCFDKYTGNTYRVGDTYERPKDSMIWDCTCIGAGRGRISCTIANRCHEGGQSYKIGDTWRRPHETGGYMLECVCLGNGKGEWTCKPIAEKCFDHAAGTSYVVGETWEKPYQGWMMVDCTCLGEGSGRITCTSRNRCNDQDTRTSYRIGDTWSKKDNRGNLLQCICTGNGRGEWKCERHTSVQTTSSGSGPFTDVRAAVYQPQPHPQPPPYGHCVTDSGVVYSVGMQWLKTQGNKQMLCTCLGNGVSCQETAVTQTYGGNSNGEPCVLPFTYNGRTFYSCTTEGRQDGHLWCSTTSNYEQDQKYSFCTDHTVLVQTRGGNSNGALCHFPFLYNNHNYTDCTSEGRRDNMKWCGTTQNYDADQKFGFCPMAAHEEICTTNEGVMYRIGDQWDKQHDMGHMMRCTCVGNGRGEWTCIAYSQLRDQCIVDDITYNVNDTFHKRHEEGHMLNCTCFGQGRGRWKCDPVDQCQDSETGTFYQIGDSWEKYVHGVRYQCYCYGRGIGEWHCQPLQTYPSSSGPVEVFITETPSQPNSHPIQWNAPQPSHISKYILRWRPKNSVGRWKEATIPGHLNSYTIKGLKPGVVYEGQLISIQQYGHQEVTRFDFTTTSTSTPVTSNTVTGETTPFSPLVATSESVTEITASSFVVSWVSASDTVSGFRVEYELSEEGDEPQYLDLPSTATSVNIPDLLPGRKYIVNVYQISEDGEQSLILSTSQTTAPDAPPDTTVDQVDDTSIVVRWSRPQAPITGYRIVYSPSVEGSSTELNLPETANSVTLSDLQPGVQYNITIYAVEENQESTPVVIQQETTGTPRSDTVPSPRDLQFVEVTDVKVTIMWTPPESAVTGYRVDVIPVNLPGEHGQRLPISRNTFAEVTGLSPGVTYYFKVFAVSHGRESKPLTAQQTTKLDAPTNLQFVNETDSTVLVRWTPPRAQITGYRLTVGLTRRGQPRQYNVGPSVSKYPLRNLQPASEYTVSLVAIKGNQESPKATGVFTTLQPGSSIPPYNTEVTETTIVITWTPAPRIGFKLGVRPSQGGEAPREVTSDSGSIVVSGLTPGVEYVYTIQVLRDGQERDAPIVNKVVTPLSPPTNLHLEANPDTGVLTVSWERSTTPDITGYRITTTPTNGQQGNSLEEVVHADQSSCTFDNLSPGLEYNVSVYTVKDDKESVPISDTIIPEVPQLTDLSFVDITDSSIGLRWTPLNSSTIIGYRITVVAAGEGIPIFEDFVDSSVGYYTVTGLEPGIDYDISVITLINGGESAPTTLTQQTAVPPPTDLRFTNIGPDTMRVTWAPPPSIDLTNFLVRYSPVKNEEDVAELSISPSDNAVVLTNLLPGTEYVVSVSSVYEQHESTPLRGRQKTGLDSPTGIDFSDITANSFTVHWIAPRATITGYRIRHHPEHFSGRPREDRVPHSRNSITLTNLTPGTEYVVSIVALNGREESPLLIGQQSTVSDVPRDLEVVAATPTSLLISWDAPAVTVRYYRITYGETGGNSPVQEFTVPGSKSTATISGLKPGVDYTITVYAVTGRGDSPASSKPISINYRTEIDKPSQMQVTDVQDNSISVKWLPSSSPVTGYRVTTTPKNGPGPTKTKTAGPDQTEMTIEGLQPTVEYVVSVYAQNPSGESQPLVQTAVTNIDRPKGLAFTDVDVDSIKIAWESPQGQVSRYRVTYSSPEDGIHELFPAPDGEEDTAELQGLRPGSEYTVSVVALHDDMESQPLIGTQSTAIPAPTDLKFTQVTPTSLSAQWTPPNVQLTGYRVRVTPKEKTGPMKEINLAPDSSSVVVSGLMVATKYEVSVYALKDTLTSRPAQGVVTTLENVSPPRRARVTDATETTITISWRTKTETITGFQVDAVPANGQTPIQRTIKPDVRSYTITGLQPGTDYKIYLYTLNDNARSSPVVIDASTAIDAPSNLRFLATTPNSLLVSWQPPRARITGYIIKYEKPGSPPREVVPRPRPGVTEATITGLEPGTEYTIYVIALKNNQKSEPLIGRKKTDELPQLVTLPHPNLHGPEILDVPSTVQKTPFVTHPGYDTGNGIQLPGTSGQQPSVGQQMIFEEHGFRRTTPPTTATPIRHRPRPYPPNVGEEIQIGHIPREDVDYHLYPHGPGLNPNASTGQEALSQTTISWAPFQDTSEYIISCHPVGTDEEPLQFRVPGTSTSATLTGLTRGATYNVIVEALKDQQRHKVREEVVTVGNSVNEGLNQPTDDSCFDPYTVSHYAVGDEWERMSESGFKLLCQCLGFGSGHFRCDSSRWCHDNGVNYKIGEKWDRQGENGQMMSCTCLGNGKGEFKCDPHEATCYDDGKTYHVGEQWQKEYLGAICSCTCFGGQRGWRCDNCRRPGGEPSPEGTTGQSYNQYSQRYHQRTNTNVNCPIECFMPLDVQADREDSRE

T1: Robo4 (Roundabout 4) (human (endogenous in L-LECs)) (UniProt Q8WZ75)
T1 sequence: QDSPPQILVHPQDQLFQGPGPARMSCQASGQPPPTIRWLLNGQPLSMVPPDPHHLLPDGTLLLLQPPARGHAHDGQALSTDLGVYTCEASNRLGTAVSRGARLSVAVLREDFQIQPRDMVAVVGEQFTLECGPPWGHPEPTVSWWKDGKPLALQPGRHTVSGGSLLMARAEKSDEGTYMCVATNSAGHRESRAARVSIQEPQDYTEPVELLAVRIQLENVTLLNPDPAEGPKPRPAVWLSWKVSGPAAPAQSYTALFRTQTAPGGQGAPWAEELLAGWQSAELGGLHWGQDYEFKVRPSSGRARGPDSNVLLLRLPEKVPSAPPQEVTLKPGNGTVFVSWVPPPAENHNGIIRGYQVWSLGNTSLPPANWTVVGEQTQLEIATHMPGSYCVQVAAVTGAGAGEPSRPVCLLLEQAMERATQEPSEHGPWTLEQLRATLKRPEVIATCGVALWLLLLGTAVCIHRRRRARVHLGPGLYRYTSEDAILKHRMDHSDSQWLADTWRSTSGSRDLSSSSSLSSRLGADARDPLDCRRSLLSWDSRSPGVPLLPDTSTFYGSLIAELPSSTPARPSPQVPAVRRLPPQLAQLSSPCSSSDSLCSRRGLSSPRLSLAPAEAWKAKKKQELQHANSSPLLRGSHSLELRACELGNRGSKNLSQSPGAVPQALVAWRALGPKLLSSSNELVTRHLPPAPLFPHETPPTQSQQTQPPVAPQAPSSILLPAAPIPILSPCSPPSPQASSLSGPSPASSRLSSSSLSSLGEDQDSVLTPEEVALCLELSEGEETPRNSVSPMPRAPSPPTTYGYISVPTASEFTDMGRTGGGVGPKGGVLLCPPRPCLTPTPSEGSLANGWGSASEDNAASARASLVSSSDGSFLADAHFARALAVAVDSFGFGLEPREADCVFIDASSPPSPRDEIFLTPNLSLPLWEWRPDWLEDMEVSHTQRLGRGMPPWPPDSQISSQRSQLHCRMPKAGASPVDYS

T2: RFP-tagged Robo4 (pCMV6-AC-RFP-Robo4) (UniProt Q8WZ75)
T2 sequence: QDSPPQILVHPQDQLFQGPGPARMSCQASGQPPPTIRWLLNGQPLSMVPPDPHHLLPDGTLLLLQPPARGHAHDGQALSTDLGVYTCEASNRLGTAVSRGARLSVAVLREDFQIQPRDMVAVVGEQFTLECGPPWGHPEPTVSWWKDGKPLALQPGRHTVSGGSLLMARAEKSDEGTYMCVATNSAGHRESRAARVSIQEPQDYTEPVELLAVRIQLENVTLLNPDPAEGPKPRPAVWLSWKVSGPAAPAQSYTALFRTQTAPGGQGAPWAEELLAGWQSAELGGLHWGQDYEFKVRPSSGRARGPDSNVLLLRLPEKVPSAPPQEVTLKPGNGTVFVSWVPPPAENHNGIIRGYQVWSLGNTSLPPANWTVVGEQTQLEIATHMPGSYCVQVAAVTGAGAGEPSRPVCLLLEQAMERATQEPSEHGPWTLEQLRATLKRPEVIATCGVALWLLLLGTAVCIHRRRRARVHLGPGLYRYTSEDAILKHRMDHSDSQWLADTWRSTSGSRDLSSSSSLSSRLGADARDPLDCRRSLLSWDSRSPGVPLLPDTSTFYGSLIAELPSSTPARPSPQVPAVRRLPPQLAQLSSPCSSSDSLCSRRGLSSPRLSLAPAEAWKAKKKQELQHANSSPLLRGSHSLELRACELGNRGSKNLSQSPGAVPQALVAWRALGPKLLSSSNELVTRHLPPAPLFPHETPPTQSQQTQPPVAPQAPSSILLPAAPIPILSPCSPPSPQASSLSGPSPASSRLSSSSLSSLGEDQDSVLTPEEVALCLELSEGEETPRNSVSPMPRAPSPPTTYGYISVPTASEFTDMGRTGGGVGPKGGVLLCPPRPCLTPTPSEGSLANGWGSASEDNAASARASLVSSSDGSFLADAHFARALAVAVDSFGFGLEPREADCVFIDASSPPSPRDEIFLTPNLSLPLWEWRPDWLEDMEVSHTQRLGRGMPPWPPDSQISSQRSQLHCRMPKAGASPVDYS


Columns and labels:
[1] = biological target: T1, Robo4 (Roundabout 4) (human (endogenous in L-LECs)); test: co-IP; Robo4 immunoprecipitated from total lysates (RIPA buffer) of L-LECs, Western blot for the partner; cells serum-starved 2 h, then treated with HIV-1 gp120 (500 ng/ml), Slit2N (500 ng/ml) or controls for 15 min, or with Slit2N 2 h and then gp120 for the times indicated
[2] = biological target: T2, RFP-tagged Robo4 (pCMV6-AC-RFP-Robo4); test: co-IP; 293 cells co-transfected with a Robo4 expression plasmid and a Myc-tagged Slit2 expression plasmid or vector control, 48 h; Robo4 immunoprecipitated from total lysates, Western blot for c-Myc

| binding [1] | binding [2] | Molecule |
| --- | --- | --- |
| binds |  | fibronectin (from UniProt P02751 32-2477) |
|  | binds | Myc-DDK-tagged Slit2 (ligand, UniProt O94813 31-1529) QCSCSGSTVDCHGLALRSVPRNIPRNTERLDLNGNNITRITKTDFAGLRHLRVLQLMENKISTIERGAFQDLKELERLRLNRNHLQLFPELLFLGTAKLYRLDLSENQIQAIPRKAFRGAVDIKNLQLDYNQISCIEDGAFRALRDLEVLTLNNNNITRLSVASFNHMPKLRTFRLHSNNLYCDCHLAWLSDWLRQRPRVGLYTQCMGPSHLRGHNVAEVQKREFVCSGHQSFMAPSCSVLHCPAACTCSNNIVDCRGKGLTEIPTNLPETITEIRLEQNTIKVIPPGAFSPYKKLRRIDLSNNQISELAPDAFQGLRSLNSLVLYGNKITELPKSLFEGLFSLQLLLLNANKINCLRVDAFQDLHNLNLLSLYDNKLQTIAKGTFSPLRAIQTMHLAQNPFICDCHLKWLADYLHTNPIETSGARCTSPRRLANKRIGQIKSKKFRCSAKEQYFIPGTEDYRSKLSGDCFADLACPEKCRCEGTTVDCSNQKLNKIPEHIPQYTAELRLNNNEFTVLEATGIFKKLPQLRKINFSNNKITDIEEGAFEGASGVNEILLTSNRLENVQHKMFKGLESLKTLMLRSNRITCVGNDSFIGLSSVRLLSLYDNQITTVAPGAFDTLHSLSTLNLLANPFNCNCYLAWLGEWLRKKRIVTGNPRCQKPYFLKEIPIQDVAIQDFTCDDGNDDNSCSPLSRCPTECTCLDTVVRCSNKGLKVLPKGIPRDVTELYLDGNQFTLVPKELSNYKHLTLIDLSNNRISTLSNQSFSNMTQLLTLILSYNRLRCIPPRTFDGLKSLRLLSLHGNDISVVPEGAFNDLSALSHLAIGANPLYCDCNMQWLSDWVKSEYKEPGIARCAGPGEMADKLLLTTPSKKFTCQGPVDVNILAKCNPCLSNPCKNDGTCNSDPVDFYRCTCPYGFKGQDCDVPIHACISNPCKHGGTCHLKEGEEDGFWCICADGFEGENCEVNVDDCEDNDCENNSTCVDGINNYTCLCPPEYTGELCEEKLDFCAQDLNPCQHDSKCILTPKGFKCDCTPGYVGEHCDIDFDDCQDNKCKNGAHCTDAVNGYTCICPEGYSGLFCEFSPPMVLPRTSPCDNFDCQNGAQCIVRINEPICQCLPGYQGEKCEKLVSVNFINKESYLQIPSAKVRPQTNITLQIATDEDSGILLYKGDKDHIAVELYRGRVRASYDTGSHPASAIYSVETINDGNFHIVELLALDQSLSLSVDGGNPKIITNLSKQSTLNFDSPLYVGGMPGKSNVASLRQAPGQNGTSFHGCIRNLYINSELQDFQKVPMQTGILPGCEPCHKKVCAHGTCQPSSQAGFTCECQEGWMGPLCDQRTNDPCLGNKCVHGTCLPINAFSYSCKCLEGHGGVLCDEEEDLFNPCQAIKCKHGKCRLSGLGQPYCECSSGYTGDSCDREISCRGERIRDYYQKQQGYAACQTTKKVSRLECRGGCAGGQCCGPLRSKRRKYSFECTDGSSFVDEVEKVVKCGCTRCVS |
